# Reference: ChEMBL document CHEMBL6074686 (Eur J Med Chem, 2025)
# Assay: Toxicity in female BALB/c nude mouse xenografted with human SK-OV-3 cells assessed as body weight loss at 10 mg/kg, sc administered via tail vein once every 2 to 3 days
# Format: organism-based
# Settings: in vivo, time 2-3 day
compound,measurement,value
CC(=O)O[C@H]1C(=O)[C@@]2(C)[C@H]([C@H](OC(=O)c3ccccc3)[C@]3(O)C[C@H](OC(=O)[C@H](O)[C@@H](NC(=O)c4ccccc4)c4ccccc4)C(C)=C1C3(C)C)[C@]1(OC(C)=O)CO[C@@H]1C[C@@H]2O [PACLITAXEL],Activity,Toxic
